Experiment in all cases: co-IP; endogenous proteins in A549 cell lysates; immunoprecipitation followed by Western blot
In assay [1] the target is Dynamin related protein 1 (DRP1) (human (endogenous in A549)) (UniProt O00429).
In assay [2] the target is T1, HERC5 (human (endogenous in A549)) (UniProt Q9UII4).
T1 sequence: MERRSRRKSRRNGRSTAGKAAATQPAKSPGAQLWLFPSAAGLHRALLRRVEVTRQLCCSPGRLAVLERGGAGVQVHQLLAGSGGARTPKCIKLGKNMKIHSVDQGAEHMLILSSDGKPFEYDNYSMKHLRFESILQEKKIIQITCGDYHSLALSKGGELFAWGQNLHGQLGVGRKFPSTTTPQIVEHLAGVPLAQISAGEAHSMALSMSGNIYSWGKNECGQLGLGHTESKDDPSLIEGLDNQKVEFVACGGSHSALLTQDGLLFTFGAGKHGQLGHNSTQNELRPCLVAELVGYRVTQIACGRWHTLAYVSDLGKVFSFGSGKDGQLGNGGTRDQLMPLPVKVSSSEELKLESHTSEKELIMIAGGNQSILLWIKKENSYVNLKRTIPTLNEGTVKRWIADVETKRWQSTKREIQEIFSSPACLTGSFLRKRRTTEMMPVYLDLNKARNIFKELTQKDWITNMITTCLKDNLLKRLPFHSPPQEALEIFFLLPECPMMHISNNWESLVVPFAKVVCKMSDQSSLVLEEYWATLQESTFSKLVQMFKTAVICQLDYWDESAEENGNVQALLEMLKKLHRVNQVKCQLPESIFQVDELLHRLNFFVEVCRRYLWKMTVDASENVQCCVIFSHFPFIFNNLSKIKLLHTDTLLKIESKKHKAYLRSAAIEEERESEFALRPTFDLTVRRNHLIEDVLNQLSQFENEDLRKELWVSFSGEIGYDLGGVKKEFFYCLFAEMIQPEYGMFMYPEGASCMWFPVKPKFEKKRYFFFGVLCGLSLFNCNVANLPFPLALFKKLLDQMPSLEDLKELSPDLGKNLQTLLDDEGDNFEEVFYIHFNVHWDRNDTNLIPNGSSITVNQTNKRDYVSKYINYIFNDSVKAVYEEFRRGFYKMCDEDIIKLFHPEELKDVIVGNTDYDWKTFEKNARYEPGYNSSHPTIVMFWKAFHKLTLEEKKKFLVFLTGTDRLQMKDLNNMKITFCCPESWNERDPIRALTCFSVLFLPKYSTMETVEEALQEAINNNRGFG

Amino acid sequences for entries named in this document (tags omitted). Residues count along the entry.
UniProt O00429: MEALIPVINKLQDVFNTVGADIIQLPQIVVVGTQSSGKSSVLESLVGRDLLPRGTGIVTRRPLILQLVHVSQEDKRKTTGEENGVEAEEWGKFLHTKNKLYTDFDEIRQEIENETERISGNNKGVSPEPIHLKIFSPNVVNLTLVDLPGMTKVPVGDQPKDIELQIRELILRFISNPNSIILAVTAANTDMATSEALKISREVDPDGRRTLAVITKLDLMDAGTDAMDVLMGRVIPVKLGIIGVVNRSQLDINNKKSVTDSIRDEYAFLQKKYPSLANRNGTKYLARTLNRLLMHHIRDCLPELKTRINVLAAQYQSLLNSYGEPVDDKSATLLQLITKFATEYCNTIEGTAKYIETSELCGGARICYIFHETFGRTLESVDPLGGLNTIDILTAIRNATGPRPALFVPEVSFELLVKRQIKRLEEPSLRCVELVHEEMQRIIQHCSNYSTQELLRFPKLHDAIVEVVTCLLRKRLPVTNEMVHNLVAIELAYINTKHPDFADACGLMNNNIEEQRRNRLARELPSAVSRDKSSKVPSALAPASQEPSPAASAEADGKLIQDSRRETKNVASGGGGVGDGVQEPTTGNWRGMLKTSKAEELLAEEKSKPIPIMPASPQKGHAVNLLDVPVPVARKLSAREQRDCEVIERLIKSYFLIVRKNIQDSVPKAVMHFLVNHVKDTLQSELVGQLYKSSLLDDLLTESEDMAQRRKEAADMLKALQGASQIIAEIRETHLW
UniProt P05161, residues 1-157: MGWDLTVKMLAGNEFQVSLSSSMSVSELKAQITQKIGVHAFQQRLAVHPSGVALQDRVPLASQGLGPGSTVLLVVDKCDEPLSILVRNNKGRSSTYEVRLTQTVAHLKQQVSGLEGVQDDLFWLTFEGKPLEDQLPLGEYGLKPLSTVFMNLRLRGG
UniProt Q14258: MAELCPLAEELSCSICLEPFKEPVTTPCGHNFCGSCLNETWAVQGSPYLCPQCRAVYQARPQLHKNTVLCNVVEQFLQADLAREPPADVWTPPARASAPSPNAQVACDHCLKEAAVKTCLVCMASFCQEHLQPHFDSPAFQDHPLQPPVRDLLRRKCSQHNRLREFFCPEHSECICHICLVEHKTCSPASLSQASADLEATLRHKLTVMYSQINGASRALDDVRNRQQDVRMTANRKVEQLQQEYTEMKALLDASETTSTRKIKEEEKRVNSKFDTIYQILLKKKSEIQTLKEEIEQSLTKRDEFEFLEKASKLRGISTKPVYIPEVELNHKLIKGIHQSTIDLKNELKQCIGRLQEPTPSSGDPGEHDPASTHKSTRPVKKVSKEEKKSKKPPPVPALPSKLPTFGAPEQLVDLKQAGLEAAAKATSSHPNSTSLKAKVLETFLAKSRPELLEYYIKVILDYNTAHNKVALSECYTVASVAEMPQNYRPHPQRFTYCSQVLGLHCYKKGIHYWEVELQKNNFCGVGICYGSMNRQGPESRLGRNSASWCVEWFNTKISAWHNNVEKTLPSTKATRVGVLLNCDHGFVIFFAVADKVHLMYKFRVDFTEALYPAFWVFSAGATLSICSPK

Assay [3] concerns the target interferon-stimulated gene 15 (ISG15) (human (endogenous in A549)) (UniProt P05161).

Results are given in words; binding and its absence hold for the method and conditions named. In cells and extracts the contact can be indirect. Some entries that bind do so weakly or less than the wild type.

On to “TRIM25 (tripartite motif containing 25) (from UniProt Q14258 1-630) (enzyme)”, for which, in assay [1], the binding result was “binds”. With “Dynamin related protein 1 (DRP1) (from UniProt O00429 1-736)”, the binding entry in assay [2] and in assay [3] was “binds” each time.
